One assay relates to splenic Tregs. The assay is described as follows: Rat CIA model: splenic Treg levels. As to conditions: in vivo. The procedure:
For isolation of synovial fluid prior to study termination, animals were anesthetized and the skin on the hind limbs were separated to ensure exposure of knee joint. A small incision was made near the top of the knee joint and the articular cavity was rinsed with 60 μl phosphate-buffered saline (PBS) for 2 time and ˜50-60 μl synovial fluid was collected. The synovial fluid samples were spun down, and the supernatant stored at −80° C. prior to cytokine analysis. At study termination, plasma was prepared from whole blood and stored at −80° C. prior to cytokine analysis and measurement of total and anti-collagen IgG. Single cell suspensions were prepared from harvested spleens following standard methods and Treg frequencies measured by flow cytometry-based immunophenotyping of freshly isolated cells.
Harvested spleens were homogenized in cold PBS and cellular debris removed by passing through a […] cell strainer. The cell suspension was centrifuged at 300×g for 5 min at 4° C. and the pellet was treated with 1×RBC lysis buffer per manufacturer's protocol (Thermofisher). The washed cell pellet was resuspended for a final concentration of 5-10×10^6 cells/ml and 100 μl of cell suspension was processed for immunophenotyping. […] Cells were washed with cold FACS wash buffer (BD) and fixed with 1×FoxP3/Transcription Factor Fixation Buffer (Thermofisher) for overnight at 4° C. […] Cells were washed 2-3× with the permeabilization and wash buffer as mentioned earlier, and finally resuspended in FACS wash buffer. Samples were acquired on a BD LSRFortessa flow cytometer and data analyzed using the FlowJo software (BD).

Assay [1] concerns rat collagen induced arthritis (CIA) model. The experiment in a line: Rat collagen-induced arthritis model: clinical score. The settings on record: in vivo.

As to `CO[C@@H](C)c1c(NC(=O)Nc2ccnc(C(F)(F)F)c2)cnc2cc(Cl)nn12` [REO-981], in the assay on splenic Tregs, the “AUC for a 50% reduction in Treg numbers” value was 155,000 ng*h/ml, the “drug concentration AUC reducing Treg numbers by 50% compared to naïve animals” value is reported as 155,000 ng*hr/ml, the “log10AUC value at ~40% reduction in Treg levels” value is listed as around 1.9 μg*hr/mL and the “log10Cmax value at ~40% reduction in Treg levels” value was around 3.6 ng/mL. Moreover, in assay [1], the “AUC for a 50% reduction in disease score” value is on record as 31,500 ng*h/ml, the “drug concentration AUC achieving a 50% effect on disease score” value is on record as 31,500 ng*hr/ml, the “log10AUC value at ~50% reduction in the clinical score” value is given as around 1.5 μg*hr/mL and the “log10Cmax value at ~50% reduction in the clinical score” value is reported as around 3.1 ng/mL.

(Values after patent US20250032493A1, “Methods for Treating Diseases Using MALT1 Inhibitors” (RARIFIED BIOSCIENCES, INC., priority 2021, published 2025).)
